In patent publication US20180133257A1:
No constants are given. Whether binding was seen depends on the method and setting. For some of these results: Binding seen in cells or lysates may run through a third protein. Some entries that bind do so weakly or less than the wild type.

What was measured:
[1] = target: T1, KAI1 (CD82), mouse (mouse) (UniProt P40237); test: fluorescence staining of Tie2-GFP mouse femur sections
T1 sequence: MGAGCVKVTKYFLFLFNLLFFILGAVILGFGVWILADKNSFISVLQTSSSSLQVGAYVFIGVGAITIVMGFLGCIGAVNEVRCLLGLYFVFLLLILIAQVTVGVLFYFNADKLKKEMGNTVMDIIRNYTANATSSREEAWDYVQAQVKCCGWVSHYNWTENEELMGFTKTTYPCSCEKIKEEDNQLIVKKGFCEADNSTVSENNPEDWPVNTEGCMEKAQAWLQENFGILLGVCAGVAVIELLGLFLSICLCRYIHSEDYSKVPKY

[2] = target: T1, KAI1 (CD82), mouse (mouse); test: fluorescence staining of C57 mouse femur sections (CD150, KAI1, DARC)
[3] = target: T1, KAI1 (CD82), mouse (mouse); test: co-immunoprecipitation from EML cells: IP with KAI1 antibody and Western blot of DARC, and the reverse
[4] = target: T1, KAI1 (CD82), mouse (mouse); test: co-culture of mouse F4/80(+) cells and CFSE-tagged Lin(-) cells, fluorescence staining of KAI1 and DARC

binding [1]: binds
binding [2]: binds
binding [3]: binds
binding [4]: binds
B1: Duffy antigen receptor for chemokines (DARC), mouse (receptor)
chain: MGNCLYPVENLSLDKNGTQFTFDSWNYSFEDNYSYELSSDYSLTPAAPCYSCNLLGRSSLPFFMLTSVLGMLASGGILFAILRPFFHWQICPSWPILAELAVGSALFSIAVPILAPGLHSAHSTALCNLGYWVWYTSAFAQALLIGCYACLNPRLNIGQLRGFTLGLSVGLWGAAALLGLPVALASDAYNGFCAFPSSRDMEALKYMHYAICFTIFTVLPPTLLAAKGLKIALSKGPGPWVSVLWIWFIFWWPHGMVLIFDALVRSKIVLLYTCQSQKILDAMLNVTEALSMLHCVATPLLLALFCHQTTRRSLSSLSLPTRQASQMDALAGKS
